# Test results as given in the supplement of paper PMC12819154, “High-throughput peptide-centric local stability assay extends protein–ligand identification to membrane proteins, tissues and bacteria” (Nature Structural & Molecular Biology, 2025).
# Amino acid sequences for entries named in this document (tags omitted). A change or cut given only in a name is not applied to a line headed by its entry.
# UniProt P97450: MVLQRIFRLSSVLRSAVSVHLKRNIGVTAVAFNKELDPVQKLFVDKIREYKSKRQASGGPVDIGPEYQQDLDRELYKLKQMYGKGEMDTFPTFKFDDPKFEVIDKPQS
# UniProt P58404: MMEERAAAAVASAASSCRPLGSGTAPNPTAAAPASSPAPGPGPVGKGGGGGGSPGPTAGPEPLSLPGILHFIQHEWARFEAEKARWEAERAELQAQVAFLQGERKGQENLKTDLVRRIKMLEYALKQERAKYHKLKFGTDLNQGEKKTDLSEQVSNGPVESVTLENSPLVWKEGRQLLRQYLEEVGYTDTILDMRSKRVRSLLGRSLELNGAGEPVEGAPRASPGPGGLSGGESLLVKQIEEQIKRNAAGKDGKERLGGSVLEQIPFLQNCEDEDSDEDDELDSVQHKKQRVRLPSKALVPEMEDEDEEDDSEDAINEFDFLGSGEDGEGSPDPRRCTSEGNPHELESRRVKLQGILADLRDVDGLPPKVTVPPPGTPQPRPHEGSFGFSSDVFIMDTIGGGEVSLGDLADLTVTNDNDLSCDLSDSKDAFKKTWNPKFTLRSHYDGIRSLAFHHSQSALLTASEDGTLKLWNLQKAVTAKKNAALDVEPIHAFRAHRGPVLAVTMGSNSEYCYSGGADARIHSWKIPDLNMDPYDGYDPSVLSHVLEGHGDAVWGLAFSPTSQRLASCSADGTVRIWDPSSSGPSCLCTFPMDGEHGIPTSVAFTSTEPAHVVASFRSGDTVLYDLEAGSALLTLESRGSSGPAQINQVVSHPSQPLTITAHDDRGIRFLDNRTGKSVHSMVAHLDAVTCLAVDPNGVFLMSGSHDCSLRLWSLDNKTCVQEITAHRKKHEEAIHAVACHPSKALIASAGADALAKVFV
# UniProt P70195: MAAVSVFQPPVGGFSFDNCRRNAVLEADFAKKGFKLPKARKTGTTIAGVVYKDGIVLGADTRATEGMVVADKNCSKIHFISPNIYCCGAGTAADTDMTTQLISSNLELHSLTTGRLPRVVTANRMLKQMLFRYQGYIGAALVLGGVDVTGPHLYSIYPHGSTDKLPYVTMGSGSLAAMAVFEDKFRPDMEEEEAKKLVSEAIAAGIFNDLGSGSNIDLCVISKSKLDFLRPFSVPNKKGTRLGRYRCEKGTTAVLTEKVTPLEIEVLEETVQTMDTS
# UniProt P59383: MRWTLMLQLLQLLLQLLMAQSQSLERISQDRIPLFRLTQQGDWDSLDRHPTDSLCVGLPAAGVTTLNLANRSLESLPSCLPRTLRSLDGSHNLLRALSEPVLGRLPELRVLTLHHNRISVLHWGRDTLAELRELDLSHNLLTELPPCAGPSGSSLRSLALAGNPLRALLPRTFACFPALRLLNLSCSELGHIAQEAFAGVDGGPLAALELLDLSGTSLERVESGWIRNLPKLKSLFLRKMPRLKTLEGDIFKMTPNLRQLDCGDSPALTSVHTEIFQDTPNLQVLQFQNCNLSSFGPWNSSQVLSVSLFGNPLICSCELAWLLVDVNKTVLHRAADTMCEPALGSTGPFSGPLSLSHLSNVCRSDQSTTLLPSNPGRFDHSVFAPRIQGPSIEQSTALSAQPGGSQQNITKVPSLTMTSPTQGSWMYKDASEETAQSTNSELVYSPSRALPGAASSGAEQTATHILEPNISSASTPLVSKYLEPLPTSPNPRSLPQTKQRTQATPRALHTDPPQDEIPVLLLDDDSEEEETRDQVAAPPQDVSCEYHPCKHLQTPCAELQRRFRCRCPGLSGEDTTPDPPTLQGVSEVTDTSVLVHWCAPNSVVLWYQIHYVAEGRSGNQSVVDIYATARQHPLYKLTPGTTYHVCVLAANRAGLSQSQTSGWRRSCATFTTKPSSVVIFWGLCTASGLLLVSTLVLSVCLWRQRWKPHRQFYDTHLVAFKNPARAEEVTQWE
# UniProt P60334: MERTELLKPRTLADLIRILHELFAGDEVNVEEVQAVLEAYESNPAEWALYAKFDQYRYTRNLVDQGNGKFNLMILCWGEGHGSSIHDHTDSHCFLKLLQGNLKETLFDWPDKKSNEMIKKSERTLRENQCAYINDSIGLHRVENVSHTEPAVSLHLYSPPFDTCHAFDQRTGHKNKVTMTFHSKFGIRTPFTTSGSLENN
# UniProt P61458: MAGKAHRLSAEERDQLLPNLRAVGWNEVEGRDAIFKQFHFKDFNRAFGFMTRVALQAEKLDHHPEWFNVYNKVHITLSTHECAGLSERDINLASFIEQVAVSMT
# UniProt P59808: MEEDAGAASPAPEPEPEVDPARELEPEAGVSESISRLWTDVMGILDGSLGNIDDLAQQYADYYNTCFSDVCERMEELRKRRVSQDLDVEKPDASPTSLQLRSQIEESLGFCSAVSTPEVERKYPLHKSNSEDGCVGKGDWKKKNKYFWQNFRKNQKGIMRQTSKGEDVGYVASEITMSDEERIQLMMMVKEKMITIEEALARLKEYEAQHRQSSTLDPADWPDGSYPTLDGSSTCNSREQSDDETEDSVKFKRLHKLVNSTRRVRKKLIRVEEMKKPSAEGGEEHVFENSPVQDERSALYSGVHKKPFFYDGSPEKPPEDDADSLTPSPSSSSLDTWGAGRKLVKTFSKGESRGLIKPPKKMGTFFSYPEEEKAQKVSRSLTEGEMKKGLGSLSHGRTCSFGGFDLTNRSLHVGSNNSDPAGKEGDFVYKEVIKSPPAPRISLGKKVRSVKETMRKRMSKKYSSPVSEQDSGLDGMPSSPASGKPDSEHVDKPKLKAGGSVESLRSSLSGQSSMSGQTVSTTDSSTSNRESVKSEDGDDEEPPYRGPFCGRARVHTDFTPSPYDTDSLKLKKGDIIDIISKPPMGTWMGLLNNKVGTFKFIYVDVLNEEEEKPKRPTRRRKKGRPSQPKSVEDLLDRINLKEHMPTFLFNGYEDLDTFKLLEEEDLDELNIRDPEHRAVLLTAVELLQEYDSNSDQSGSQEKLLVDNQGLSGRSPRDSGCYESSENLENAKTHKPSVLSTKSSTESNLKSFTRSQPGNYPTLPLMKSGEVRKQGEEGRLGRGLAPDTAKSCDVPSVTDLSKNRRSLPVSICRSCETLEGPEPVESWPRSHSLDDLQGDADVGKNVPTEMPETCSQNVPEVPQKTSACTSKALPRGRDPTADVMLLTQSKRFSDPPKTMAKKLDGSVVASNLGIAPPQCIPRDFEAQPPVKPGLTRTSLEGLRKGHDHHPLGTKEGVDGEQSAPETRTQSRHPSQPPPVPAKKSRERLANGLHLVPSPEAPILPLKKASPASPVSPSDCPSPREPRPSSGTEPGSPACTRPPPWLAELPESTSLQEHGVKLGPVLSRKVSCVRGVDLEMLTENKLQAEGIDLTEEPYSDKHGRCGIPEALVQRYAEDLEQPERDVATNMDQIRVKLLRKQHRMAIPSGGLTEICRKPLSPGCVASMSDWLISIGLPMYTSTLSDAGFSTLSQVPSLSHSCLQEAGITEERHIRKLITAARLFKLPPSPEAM
# UniProt P97384, whole entry: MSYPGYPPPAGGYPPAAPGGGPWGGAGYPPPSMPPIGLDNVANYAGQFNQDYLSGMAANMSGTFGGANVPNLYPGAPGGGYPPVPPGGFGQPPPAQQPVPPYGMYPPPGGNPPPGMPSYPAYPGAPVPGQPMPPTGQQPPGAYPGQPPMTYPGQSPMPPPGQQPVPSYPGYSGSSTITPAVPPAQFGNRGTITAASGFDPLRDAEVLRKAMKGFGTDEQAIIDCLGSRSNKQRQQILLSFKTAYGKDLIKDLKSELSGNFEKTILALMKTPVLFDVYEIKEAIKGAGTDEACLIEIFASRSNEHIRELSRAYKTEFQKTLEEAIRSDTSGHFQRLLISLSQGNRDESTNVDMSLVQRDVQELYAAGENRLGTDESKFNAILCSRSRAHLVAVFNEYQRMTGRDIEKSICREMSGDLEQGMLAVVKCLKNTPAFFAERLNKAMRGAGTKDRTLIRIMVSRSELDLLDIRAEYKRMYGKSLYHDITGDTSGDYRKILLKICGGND
# UniProt P57716, whole entry: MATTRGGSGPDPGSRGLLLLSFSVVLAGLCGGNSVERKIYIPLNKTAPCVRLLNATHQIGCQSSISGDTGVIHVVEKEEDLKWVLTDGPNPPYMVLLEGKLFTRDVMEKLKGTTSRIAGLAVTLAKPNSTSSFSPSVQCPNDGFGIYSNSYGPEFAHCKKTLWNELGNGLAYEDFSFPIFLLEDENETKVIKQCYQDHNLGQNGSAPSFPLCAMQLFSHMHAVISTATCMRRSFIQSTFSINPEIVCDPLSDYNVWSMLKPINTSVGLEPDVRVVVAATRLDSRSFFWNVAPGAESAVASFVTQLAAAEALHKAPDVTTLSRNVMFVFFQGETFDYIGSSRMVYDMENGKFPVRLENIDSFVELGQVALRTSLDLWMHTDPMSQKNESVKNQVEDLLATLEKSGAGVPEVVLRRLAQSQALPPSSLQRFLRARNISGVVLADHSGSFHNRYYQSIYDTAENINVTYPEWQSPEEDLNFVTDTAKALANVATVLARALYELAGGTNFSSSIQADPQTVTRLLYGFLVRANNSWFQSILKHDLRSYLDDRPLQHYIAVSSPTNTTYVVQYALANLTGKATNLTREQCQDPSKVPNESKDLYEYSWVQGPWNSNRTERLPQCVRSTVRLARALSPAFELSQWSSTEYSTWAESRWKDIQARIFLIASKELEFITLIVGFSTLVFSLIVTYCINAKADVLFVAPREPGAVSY
# UniProt P70158: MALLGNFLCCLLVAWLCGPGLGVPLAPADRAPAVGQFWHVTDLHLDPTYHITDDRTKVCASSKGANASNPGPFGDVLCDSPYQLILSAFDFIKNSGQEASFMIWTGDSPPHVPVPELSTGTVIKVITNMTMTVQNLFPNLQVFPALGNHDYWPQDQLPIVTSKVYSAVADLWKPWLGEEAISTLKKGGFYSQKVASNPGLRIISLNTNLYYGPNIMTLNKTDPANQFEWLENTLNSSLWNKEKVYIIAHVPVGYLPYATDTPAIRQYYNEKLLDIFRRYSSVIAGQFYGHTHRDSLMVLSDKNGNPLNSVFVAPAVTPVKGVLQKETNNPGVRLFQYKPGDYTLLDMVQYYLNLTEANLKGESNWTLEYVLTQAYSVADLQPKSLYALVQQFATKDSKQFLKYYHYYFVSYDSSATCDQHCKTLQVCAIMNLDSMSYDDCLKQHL
# UniProt P61922: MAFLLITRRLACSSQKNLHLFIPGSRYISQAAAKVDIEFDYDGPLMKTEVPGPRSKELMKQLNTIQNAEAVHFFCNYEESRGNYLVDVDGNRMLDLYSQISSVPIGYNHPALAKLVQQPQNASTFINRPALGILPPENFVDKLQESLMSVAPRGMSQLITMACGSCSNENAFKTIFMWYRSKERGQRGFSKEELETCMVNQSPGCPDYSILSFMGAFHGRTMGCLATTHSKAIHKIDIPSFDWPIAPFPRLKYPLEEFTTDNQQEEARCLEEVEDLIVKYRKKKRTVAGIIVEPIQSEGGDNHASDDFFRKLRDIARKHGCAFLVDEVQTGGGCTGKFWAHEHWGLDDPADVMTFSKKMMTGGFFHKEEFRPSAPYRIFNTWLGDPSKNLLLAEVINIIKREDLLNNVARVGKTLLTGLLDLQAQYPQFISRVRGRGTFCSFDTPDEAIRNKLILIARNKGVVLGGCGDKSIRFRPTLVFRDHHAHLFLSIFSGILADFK
# UniProt P97302: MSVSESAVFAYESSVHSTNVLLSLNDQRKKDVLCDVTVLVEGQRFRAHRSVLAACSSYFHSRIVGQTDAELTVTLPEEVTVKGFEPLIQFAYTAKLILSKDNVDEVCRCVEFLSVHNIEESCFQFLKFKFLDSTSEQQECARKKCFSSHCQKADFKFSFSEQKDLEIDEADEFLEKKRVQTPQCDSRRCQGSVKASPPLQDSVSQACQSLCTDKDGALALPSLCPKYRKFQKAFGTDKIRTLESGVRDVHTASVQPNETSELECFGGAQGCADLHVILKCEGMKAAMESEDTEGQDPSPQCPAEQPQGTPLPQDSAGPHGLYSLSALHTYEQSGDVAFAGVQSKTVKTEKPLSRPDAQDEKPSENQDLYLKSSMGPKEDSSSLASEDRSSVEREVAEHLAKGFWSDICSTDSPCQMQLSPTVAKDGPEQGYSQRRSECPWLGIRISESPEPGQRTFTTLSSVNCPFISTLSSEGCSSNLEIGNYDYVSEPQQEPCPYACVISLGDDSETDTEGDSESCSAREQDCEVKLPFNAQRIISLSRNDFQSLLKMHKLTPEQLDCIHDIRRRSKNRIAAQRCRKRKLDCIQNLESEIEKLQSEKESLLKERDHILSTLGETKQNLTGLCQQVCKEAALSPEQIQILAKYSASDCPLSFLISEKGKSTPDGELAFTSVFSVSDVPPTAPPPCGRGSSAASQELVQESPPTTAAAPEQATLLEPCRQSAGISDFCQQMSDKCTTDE
# UniProt P67778: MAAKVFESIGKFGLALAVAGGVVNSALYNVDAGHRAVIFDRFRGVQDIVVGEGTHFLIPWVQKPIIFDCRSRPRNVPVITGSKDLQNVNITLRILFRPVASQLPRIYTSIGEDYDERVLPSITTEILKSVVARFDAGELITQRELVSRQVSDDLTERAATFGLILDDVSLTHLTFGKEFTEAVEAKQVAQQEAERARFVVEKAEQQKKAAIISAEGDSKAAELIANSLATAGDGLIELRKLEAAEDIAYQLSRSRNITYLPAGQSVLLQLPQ
# The other results are listed elsewhere or left out. Small differences around the control level are noise.
# Compound: CN[C@@H]1C[C@H]2O[C@@](C)([C@@H]1OC)n1c3ccccc3c3c4c(c5c6ccccc6n2c5c31)C(=O)NC4 [staurosporine]
# Assay: log2 fold change of pooled soluble protein (PISA), ligand vs vehicle (log2 ratio); higher = more thermally stabilized
# Conditions: ligand concentration: 20 uM; assay format: PISA pool 52.9/55.5/58.6 C
row,Target,log2 fold change of pooled soluble protein
1,UniProt P59034,0.00613
2,UniProt P56695,-0.521
3,UniProt P61028,-0.0612
4,UniProt P58801,-0.0677
5,UniProt P97333,-0.262
6,UniProt P70671,0.161
7,UniProt P97450,0.148
8,UniProt P70362,-0.0664
9,UniProt P58404,0.249
10,UniProt P57759,0.0349
11,UniProt P63030,-0.0556
12,UniProt P70195,-0.0423
13,UniProt P59383,0.117
14,UniProt P60904,-0.0555
15,UniProt P60334,-0.183
16,UniProt P61458,0.0968
17,UniProt P97742,-0.0129
18,UniProt P80313,-0.0455
19,UniProt P60840,-0.000354

row,Target,log2 fold change of pooled soluble protein
1,UniProt P59808,-0.0932
2,UniProt P60122,-0.101
3,UniProt P70698,0.351
4,UniProt P85094,0.0344
5,UniProt P97384,-0.0715
6,UniProt P57716,0.103
7,UniProt P97290,0.0532
8,UniProt P70158,-0.0431
9,UniProt P70296,-0.108
10,UniProt P61922,-0.0345
11,UniProt P97302,0.0779
12,UniProt P80318,0.0496
13,UniProt P59326,0.155
14,UniProt P97351,-0.133
15,UniProt P58710,-0.179
16,UniProt P63037,0.113
17,UniProt P67778,-0.0622
18,UniProt P70404,-0.176
19,UniProt P59759,0.0707

# Quoted from above (2 entries):
row,Target,log2 fold change of pooled soluble protein
14,UniProt P97351,-0.133
15,UniProt P58710,-0.179
